Data as given in PubChem BioAssay AID1259405 (NCATS, 2018)
The whole screen tested about 50,000 reagents; shown is a random part of them. About 4,000 of them (8%) count as active. 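Mouse siRNA library applied to hamster cells; one well for each siRNA.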 A number with no mark means an inactive call.

Aim: 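Mouse-designed siRNAs used to find CHO productivity engineering targets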 (primary screen)
Cells: Chinese hamster CHO-K1 ovary cells with stable secreted eGFP expression
Reagents: single siRNA against mouse genes, 0.8 pmol siRNA per well (2 µl of 400 nM stock)
Duration: 3 days
Detection: 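Per-well intracellular GFP measured by laser scanning cytometry, plus viability from ATP luminescence, each relative to plate median of non-targeting control wells, in %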
Direction: GFP, % of control: higher = more GFP per well, higher productivity; viability (ATP), % of control: higher = more viable cells (more ATP)
Hit rule: 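Called active when intracellular GFP, relative to negative control, is at or above 120%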

target	PubChem SID	GFP, % of control	viability (ATP), % of control
Gask1a	SID363550035	82.1	93.4
Gask1a	SID363564544	57.6	72.7
Gask1a	SID363588089	79.4	99.8
Hnrnpu	SID363569538	36.5	66.6
Hnrnpu	SID363577282	142 (active)	105
Hnrnpu	SID363578690	60.7	85
Bglap3	SID363582470	101	93.1
Bglap3	SID363584230	92.1	79.2
Map2k5	SID363547493	73.3	96.2
Map2k5	SID363558262	63.3	47.1
Map2k5	SID363560020	80.8	74.8
Mctp1	SID363543923	63.6	81.7
Mctp1	SID363551659	79.8	78.6
Mctp1	SID363559264	84.2	72.2
Itga7	SID363573475	82.5	76.9
Itga7	SID363588714	64.6	63.7
Sptbn4	SID363541538	73.6	66.5
Sptbn4	SID363556165	28.6	46.7
Sptbn4	SID363566454	92	60
Spink7	SID363573016	30.6	29.4
Spink7	SID363577592	98.2	70
Spink7	SID363581112	76.4	82.1
Stk32a	SID363547389	71	85
Stk32a	SID363558158	45.2	73.1
Stk32a	SID363559916	44.6	66.1
Dpyd	SID363574985	102	90.7
Dpyd	SID363580617	64.6	86.1
Dpyd	SID363582729	86.4	84.2
Nbl1	SID363562121	59.2	73.7
Nbl1	SID363567259	80.9	85.4
Nbl1	SID363584616	45.5	44.2
Gpr157	SID363571380	43.1	48
Gpr157	SID363571732	62.5	75.4
Gpr157	SID363572084	69.8	74.2
